In assay [1] the target is CSNK2A1, mammalian two-hybrid fusion (rabbit) (UniProt P33674). Description: two-hybrid.
Assay [2] deals with HnRNPK, mammalian two-hybrid fusion (rabbit) (UniProt O19049). Description: two-hybrid.
The target in assay [3] is CSNK2A1, myc or Flag fusion (rabbit) (UniProt P33674). Description: co-IP.
The target in assay [4] is HnRNPK, myc or Flag fusion (rabbit) (UniProt O19049). Description: co-IP.

By UniProt entry, the sequences of proteins in these tests, tags left out.
UniProt P33674: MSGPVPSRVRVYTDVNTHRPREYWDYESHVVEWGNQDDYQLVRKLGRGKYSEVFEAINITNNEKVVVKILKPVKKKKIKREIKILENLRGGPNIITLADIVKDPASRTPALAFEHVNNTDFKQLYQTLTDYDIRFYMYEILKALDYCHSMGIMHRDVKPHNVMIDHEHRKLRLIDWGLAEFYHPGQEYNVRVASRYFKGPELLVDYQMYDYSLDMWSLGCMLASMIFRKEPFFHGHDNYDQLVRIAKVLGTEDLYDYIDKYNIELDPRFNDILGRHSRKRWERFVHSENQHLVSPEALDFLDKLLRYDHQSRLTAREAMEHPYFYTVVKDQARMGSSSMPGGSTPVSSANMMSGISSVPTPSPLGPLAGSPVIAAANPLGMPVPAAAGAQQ
UniProt G1TVT0: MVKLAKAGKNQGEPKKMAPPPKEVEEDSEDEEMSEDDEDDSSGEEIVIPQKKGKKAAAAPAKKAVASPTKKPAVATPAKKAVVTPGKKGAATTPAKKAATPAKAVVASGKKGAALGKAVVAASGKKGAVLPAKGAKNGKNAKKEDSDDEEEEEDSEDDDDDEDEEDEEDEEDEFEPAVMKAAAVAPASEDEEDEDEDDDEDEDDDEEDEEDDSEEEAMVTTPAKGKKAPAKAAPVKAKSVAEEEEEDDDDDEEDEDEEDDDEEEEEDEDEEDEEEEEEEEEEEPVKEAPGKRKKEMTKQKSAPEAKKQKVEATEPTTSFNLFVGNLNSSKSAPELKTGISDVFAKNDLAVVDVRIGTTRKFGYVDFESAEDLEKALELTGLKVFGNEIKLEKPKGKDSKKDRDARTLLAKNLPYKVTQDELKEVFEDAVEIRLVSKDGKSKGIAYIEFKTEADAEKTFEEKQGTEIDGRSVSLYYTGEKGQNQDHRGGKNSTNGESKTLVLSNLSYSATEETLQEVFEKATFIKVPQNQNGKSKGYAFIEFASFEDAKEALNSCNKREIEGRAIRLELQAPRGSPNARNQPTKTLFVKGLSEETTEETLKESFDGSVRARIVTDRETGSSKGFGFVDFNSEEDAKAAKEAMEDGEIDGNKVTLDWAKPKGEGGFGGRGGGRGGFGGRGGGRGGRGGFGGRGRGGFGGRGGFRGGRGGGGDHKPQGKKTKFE

These are yes or no findings as the source states them, for the method shown. For some of these results: Binding seen in cells or lysates may run through a third protein. Some binding calls cover weakened binding; strength is not graded here.

For the substance “NCL, mammalian two-hybrid fusion (from UniProt G1TVT0 1-721)”, the binding result in assay [1] and in assay [2] was “binds” each time.
Turning to NCL-Flag (from UniProt G1TVT0 1-721), the binding entry in assay [3] and in assay [4] was “binds” throughout.

The values are drawn from article doi:10.1101/2020.05.13.094185.
